Reference: patent US7893056B2, “Peptide deformylase inhibitors” (GlaxoSmithKline LLC, priority 2007, dated 2011)
Some results were stated once for a whole list of compounds, not compound by compound.

How the values were obtained:
[1] = molecular target: T1, Streptococcus pneumoniae PDF (Streptococcus pneumoniae serotype 4, UniProt Q9F2F0); test: PDF IC50 assay (FDH-coupled), S. pneumoniae PDF; type: biochemical; details: read-out: IC50, inhibition of S. pneumoniae PDF activity
T1 sequence (Q9F2F0 1-203): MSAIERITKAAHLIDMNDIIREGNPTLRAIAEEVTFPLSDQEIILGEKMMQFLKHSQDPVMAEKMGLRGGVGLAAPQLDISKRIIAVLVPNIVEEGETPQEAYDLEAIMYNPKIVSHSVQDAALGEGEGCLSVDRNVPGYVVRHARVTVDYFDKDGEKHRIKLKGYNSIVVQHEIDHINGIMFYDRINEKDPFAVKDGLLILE

[2] = molecular target: T2, Staphylococcus aureus PDF (SaPDF) (Staphylococcus aureus, UniProt P68826); test: PDF IC50 assay (FDH-coupled), S. aureus PDF; type: biochemical; details: read-out: IC50, inhibition of S. aureus PDF activity
T2 sequence (P68826 1-183): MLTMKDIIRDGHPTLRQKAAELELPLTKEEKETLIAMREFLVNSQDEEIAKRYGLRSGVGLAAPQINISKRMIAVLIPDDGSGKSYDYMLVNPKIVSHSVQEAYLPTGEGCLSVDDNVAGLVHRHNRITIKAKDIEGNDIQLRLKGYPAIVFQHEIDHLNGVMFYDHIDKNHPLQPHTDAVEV

CC1(N2CCCC2)CN(c2nc(Cl)nc(NNC(=O)[C@H](CC3CCCC3)CN(O)C=O)c2F)C1 [Example 176, [(2R)-3-(2-{2-Chloro-5-fluoro-6-[3-methyl-3-(1-pyrrolidinyl)-1-azetidinyl]-4-pyrimidinyl}hydrazino)-2-(cyclopentylmethyl)-3-oxopropyl]hydroxyformamide]
IC50 [1]: ≤ 100 nM
IC50 [2]: ≤ 100 nM

COC(=O)N[C@H]1CCN(c2nc(Cl)nc(NNC(=O)[C@H](CC3CCCC3)CN(O)C=O)c2F)C1 [Example 278, Methyl ((3S)-1-{2-chloro-6-[2-((2R)-3-cyclopentyl-2-{[formyl(hydroxy)amino]methyl}propanoyl)hydrazino]-5-fluoro-4-pyrimidinyl}-3-pyrrolidinyl)carbamate]
IC50 [1]: ≤ 100 nM
IC50 [2]: ≤ 100 nM

CSc1nc(NNC(=O)[C@H](CC2CCCC2)CN(O)C=O)c(F)c(N2CC(C)(N(C)C)C2)n1 [Example 185, ((2R)-2-(Cyclopentylmethyl)-3-{2-[6-[3-(dimethylamino)-3-methyl-1-azetidinyl]-5-fluoro-2-(methylthio)-4-pyrimidinyl]hydrazino}-3-oxopropyl)hydroxyformamide]
IC50 [1]: ≤ 100 nM
IC50 [2]: ≤ 100 nM

O=CN(O)C[C@@H](CC1CCCC1)C(=O)NNc1nc(Cl)nc(NCc2cscn2)c1F [Example 233, [(2R)-3-(2-{2-Chloro-5-fluoro-6-[(1,3-thiazol-4-ylmethyl)amino]-4-pyrimidinyl}hydrazino)-2-(cyclopentylmethyl)-3-oxopropyl]hydroxyformamide]
IC50 [1]: ≤ 100 nM
IC50 [2]: ≤ 100 nM

Cc1nc(NNC(=O)[C@H](CC2CCCC2)CN(O)C=O)c(F)c(N2C[C@@H]3C4CCC(O4)[C@@H]3C2)n1 [Example 186, [(2R)-2-(Cyclopentylmethyl)-3-(2-{5-fluoro-2-methyl-6-[(cis)-10-oxa-4-azatricyclo[5.2.1.0^2,6]dec-4-yl]-4-pyrimidinyl}hydrazino)-3-oxopropyl]hydroxyformamide]
IC50 [1]: ≤ 100 nM
IC50 [2]: ≤ 100 nM

C[C@@H]1[C@H](C)N(C)CCN1c1nc(Cl)nc(NNC(=O)[C@H](CC2CCCC2)CN(O)C=O)c1F [Example 173, N-[(2R)-3-(2-{2-Chloro-5-fluoro-6-[(2R,3S)-2,3,4-trimethyl-1-piperazinyl]-4-pyrimidinyl}hydrazino)-2-(cyclopentylmethyl)-3-oxopropyl]-N-hydroxyformamide]
IC50 [1]: ≤ 100 nM
IC50 [2]: ≤ 100 nM

Cc1nc(NNC(=O)[C@H](CC2CCCC2)CN(O)C=O)c(F)c(NC2CCC2)n1 [Example 20, [(2R)-3-{2-[6-(Cyclobutylamino)-5-fluoro-2-methyl-4-pyrimidinyl]hydrazino}-2-(cyclopentylmethyl)-3-oxopropyl]hydroxyformamide]
IC50 [1]: ≤ 100 nM
IC50 [2]: ≤ 100 nM

CCN(C)C[C@@H]1CCCN1c1nc(C)nc(NNC(=O)[C@H](CC2CCCC2)CN(O)C=O)c1F [Example 253, ((2R)-2-(Cyclopentylmethyl)-3-{2-[6-((2S)-2-{[ethyl(methyl)amino]methyl}-1-pyrrolidinyl)-5-fluoro-2-methyl-4-pyrimidinyl]hydrazino}-3-oxopropyl)hydroxyformamide]
IC50 [1]: ≤ 100 nM
IC50 [2]: ≤ 100 nM

CN(Cc1ccncc1)c1nc(Cl)nc(NNC(=O)[C@H](CC2CCCC2)CN(O)C=O)c1F [Example 137, [(2R)-3-(2-{2-Chloro-5-fluoro-6-[methyl(4-pyridinylmethyl)amino]-4-pyrimidinyl}hydrazino)-2-(cyclopentylmethyl)-3-oxopropyl]hydroxyformamide]
IC50 [1]: ≤ 100 nM
IC50 [2]: ≤ 100 nM

CC(C)N(C)C[C@@H]1CCCN1c1nc(Cl)nc(NNC(=O)[C@H](CC2CCCC2)CN(O)C=O)c1F [Example 269, [(2R)-3-{2-[2-Chloro-5-fluoro-6-((2S)-2-{[methyl(1-methylethyl)amino]methyl}-1-pyrrolidinyl)-4-pyrimidinyl]hydrazino}-2-(cyclopentylmethyl)-3-oxopropyl]hydroxyformamide]
IC50 [1]: ≤ 100 nM
IC50 [2]: ≤ 100 nM

Cc1nc(NNC(=O)[C@H](CC2CCCC2)CN(O)C=O)c(F)c(N2CCC[C@H]2C#N)n1 [Example 252, [(2R)-3-(2-{6-[(2S)-2-Cyano-1-pyrrolidinyl]-5-fluoro-2-methyl-4-pyrimidinyl}hydrazino)-2-(cyclopentylmethyl)-3-oxopropyl]hydroxyformamide]
IC50 [1]: ≤ 100 nM
IC50 [2]: ≤ 100 nM

Cc1nc(NNC(=O)[C@H](CC2CCCC2)CN(O)C=O)c(F)c(N2CCC[C@H]2CN(C)C)n1 [Example 235, {(2R)-2-(Cyclopentylmethyl)-3-[2-(6-{(2S)-2-[(dimethylamino)methyl]-1-pyrrolidinyl}-5-fluoro-2-methyl-4-pyrimidinyl)hydrazino]-3-oxopropyl}hydroxyformamide]
IC50 [1]: ≤ 100 nM
IC50 [2]: ≤ 100 nM

C[C@H]1CN(c2nc(Cl)nc(NNC(=O)[C@H](CC3CCCC3)CN(O)C=O)c2F)[C@@H](C)CN1C [Example 237, N-[(2R)-3-(2-{2-Chloro-5-fluoro-6-[(2S,5S)-2,4,5-trimethyl-1-piperazinyl]-4-pyrimidinyl}hydrazino)-2-(cyclopentylmethyl)-3-oxopropyl]-N-hydroxyformamide]
IC50 [1]: ≤ 100 nM
IC50 [2]: ≤ 100 nM

C[C@@H]1CN(C)CCN1c1nc(CF)nc(NNC(=O)[C@H](CC2CCCC2)CN(O)C=O)c1F [Example 117, ((2R)-2-(Cyclopentylmethyl)-3-{2-[6-[(2R)-2,4-dimethyl-1-piperazinyl]-5-fluoro-2-(fluoromethyl)-4-pyrimidinyl]hydrazino}-3-oxopropyl)hydroxyformamide]
IC50 [1]: ≤ 100 nM
IC50 [2]: ≤ 100 nM

CN(C)C1CCN(c2nc(Cl)nc(NNC(=O)[C@H](CC3CCCC3)CN(O)C=O)c2F)C1(C)C (mixture of isomers) [Example 152, [(2R)-3-(2-{2-Chloro-6-[3-(dimethylamino)-2,2-dimethyl-1-pyrrolidinyl]-5-fluoro-4-pyrimidinyl}hydrazino)-2-(cyclopentylmethyl)-3-oxopropyl]hydroxyformamide]
IC50 [1]: ≤ 100 nM
IC50 [2]: ≤ 100 nM

Cc1nc(NNC(=O)[C@H](CC2CCCC2)CN(O)C=O)c(F)c(Nc2ccc(F)cn2)n1 [Example 238, [(2R)-2-(Cyclopentylmethyl)-3-(2-{5-fluoro-6-[(5-fluoro-2-pyridinyl)amino]-2-methyl-4-pyrimidinyl}hydrazino)-3-oxopropyl]hydroxyformamide]
IC50 [1]: ≤ 100 nM
IC50 [2]: ≤ 100 nM

CN1CCCC[C@H](Nc2nc(Cl)nc(NNC(=O)[C@H](CC3CCCC3)CN(O)C=O)c2F)C1=O [Example 193, [(2R)-3-[2-(2-Chloro-5-fluoro-6-{[(3S)-1-methyl-2-oxohexahydro-1H-azepin-3-yl]amino}-4-pyrimidinyl)hydrazino]-2-(cyclopentylmethyl)-3-oxopropyl]hydroxyformamide]
IC50 [1]: ≤ 100 nM
IC50 [2]: ≤ 100 nM

CN1CCN(c2nc(Cl)nc(NNC(=O)[C@H](CC3CCCC3)CN(O)C=O)c2F)CC1(C)C [Example 148, [(2R)-3-{2-[2-Chloro-5-fluoro-6-(3,3,4-trimethyl-1-piperazinyl)-4-pyrimidinyl]hydrazino}-2-(cyclopentylmethyl)-3-oxopropyl]hydroxyformamide]
IC50 [1]: ≤ 100 nM
IC50 [2]: ≤ 100 nM

COCCN(C)C[C@@H]1CCCN1c1nc(Cl)nc(NNC(=O)[C@H](CC2CCCC2)CN(O)C=O)c1F [Example 250, [(2R)-3-(2-{2-Chloro-5-fluoro-6-[(2S)-2-({methyl[2-(methyloxy)ethyl]amino}methyl)-1-pyrrolidinyl]-4-pyrimidinyl}hydrazino)-2-(cyclopentylmethyl)-3-oxopropyl]hydroxyformamide]
IC50 [1]: ≤ 100 nM
IC50 [2]: ≤ 100 nM

CO[C@H]1CCN(c2nc(CF)nc(NNC(=O)[C@H](CC3CCCC3)CN(O)C=O)c2F)C1 [Example 71, [(2R)-2-(Cyclopentylmethyl)-3-(2-{5-fluoro-2-(fluoromethyl)-6-[(3S)-3-(methyloxy)-1-pyrrolidinyl]-4-pyrimidinyl}hydrazino)-3-oxopropyl]hydroxyformamide]
IC50 [1]: ≤ 100 nM
IC50 [2]: ≤ 100 nM

O=CN(O)C[C@@H](CC1CCCC1)C(=O)NNc1nc(Cl)nc(N2CCC[C@@H]2CF)c1F [Example 234, [(2R)-3-(2-{2-Chloro-5-fluoro-6-[(2R)-2-(fluoromethyl)-1-pyrrolidinyl]-4-pyrimidinyl}hydrazino)-2-(cyclopentylmethyl)-3-oxopropyl]hydroxyformamide]
IC50 [1]: ≤ 100 nM
IC50 [2]: ≤ 100 nM

CCc1nc(NC)c(F)c(NNC(=O)[C@H](CC2CCCC2)CN(O)C=O)n1 [Example 34, N-[(2R)-2-(Cyclopentylmethyl)-3-{2-[2-ethyl-5-fluoro-6-(methylamino)-4-pyrimidinyl]hydrazino}-3-oxopropyl]-N-hydroxyformamide]
IC50 [1]: ≤ 100 nM
IC50 [2]: ≤ 100 nM

Cc1nc(NNC(=O)[C@H](CC2CCCC2)CN(O)C=O)c(F)c(N2CC(O)C3(CC3)C2)n1 (stereo partly drawn) [Example 128, ((2R)-2-(Cyclopentylmethyl)-3-{2-[5-fluoro-6-(7-hydroxy-5-azaspiro[2.4]hept-5-yl)-2-methyl-4-pyrimidinyl]hydrazino}-3-oxopropyl)hydroxyformamide]
IC50 [1]: ≤ 100 nM
IC50 [2]: ≤ 100 nM

Cc1nc(NNC(=O)[C@H](CC2CCCC2)CN(O)C=O)c(F)c(N2CC[C@@H](O)[C@@H]2C)n1 [Example 139, [(2R)-2-(Cyclopentylmethyl)-3-(2-{5-fluoro-6-[(2S,3R)-3-hydroxy-2-methyl-1-pyrrolidinyl]-2-methyl-4-pyrimidinyl}hydrazino)-3-oxopropyl]hydroxyformamide]
IC50 [1]: ≤ 100 nM
IC50 [2]: ≤ 100 nM
